No constants are given. Whether binding was seen depends on the method and setting. Binding seen in cells or lysates may run through a third protein. Some results given as binding are weak or reduced against the parent protein; the word gives no strength.
How the values were obtained:
Test in all cases: co-IP; procedure according to ref. 68; antibodies the same as for Western blotting; which protein was precipitated not given
[1] = target: CCPG1 (cell cycle progression gene 1) (human (endogenous in KGN)) (UniProt Q9ULG6)
[2] = target: ripk1 (human (endogenous in KGN)) (UniProt Q13546)
[3] = target: STAT1 (human (endogenous in KGN)) (UniProt P42224)

Chains of the proteins cited; added tags and fusions are not shown.
UniProt Q13546: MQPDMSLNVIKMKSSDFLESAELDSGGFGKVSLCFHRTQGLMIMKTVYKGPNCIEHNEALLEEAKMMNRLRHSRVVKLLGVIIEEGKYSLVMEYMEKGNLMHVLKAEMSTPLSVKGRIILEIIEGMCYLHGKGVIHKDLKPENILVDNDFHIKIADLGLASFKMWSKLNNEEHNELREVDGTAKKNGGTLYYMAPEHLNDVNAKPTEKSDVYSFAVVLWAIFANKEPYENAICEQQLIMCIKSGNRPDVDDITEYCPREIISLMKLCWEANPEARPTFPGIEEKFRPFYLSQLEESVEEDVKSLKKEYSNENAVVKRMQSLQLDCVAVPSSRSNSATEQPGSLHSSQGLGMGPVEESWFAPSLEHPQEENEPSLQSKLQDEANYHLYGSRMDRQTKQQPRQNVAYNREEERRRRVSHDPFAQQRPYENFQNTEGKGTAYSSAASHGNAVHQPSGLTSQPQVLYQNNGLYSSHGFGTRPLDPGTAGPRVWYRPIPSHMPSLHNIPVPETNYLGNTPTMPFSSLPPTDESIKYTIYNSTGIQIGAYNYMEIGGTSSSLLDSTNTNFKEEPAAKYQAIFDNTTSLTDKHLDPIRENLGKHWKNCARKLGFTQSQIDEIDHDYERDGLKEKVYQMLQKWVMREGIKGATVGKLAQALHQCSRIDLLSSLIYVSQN
UniProt P42224: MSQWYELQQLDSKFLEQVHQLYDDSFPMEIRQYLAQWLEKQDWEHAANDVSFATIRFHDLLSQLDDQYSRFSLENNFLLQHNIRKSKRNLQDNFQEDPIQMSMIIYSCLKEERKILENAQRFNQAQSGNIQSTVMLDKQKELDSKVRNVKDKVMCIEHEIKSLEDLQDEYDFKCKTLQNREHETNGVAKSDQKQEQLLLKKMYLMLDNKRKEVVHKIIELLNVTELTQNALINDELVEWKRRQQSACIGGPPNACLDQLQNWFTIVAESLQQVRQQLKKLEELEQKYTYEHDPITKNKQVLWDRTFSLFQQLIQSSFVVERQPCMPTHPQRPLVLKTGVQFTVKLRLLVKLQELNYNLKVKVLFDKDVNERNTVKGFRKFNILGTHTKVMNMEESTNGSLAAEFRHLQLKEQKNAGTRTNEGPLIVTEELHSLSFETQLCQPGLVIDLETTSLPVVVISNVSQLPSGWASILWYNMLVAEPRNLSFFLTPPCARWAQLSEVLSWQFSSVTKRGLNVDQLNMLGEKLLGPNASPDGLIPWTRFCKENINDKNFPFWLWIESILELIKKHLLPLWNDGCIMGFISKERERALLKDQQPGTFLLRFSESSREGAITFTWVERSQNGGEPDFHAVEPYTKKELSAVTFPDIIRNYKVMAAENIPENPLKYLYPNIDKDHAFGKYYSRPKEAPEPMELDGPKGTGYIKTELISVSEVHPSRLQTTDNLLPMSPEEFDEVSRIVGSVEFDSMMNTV
UniProt P40763: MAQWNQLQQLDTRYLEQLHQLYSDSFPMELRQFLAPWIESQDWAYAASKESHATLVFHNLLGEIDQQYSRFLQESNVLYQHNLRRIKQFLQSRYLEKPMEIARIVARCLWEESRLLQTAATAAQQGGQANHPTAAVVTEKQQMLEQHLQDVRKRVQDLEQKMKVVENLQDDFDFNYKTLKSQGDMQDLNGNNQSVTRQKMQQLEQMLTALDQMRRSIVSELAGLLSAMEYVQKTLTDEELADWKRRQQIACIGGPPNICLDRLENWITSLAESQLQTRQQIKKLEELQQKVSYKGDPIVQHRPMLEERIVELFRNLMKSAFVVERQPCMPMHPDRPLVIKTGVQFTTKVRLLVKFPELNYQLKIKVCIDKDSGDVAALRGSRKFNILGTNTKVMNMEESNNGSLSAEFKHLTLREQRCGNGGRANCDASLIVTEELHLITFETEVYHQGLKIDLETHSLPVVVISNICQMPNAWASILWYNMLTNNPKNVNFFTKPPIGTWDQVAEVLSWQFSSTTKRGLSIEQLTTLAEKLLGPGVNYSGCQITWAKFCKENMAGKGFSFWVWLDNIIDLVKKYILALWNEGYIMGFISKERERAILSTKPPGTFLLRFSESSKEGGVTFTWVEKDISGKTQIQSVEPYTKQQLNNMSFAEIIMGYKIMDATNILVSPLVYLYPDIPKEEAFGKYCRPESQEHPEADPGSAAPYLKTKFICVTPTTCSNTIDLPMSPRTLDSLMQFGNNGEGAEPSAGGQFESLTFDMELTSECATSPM

MAP1LC3A (from UniProt Q9H492 1-121)
binding [1]: binds

STAT1 (from UniProt P42224 1-750)
binding [2]: binds

STAT3 (from UniProt P40763 1-770)
binding [2]: binds

B1: CCPG1 (cell cycle progression gene 1) (protein, UniProt Q9ULG6 1-757)
chain: MSENSSDSDSSCGWTVISHEGSDIEMLNSVTPTDSCEPAPECSSLEQEELQALQIEQGESSQNGTVLMEETAYPALEETSSTIEAEEQKIPEDSIYIGTASDDSDIVTLEPPKLEEIGNQEVVIVEEAQSSEDFNMGSSSSSQYTFCQPETVFSSQPSDDESSSDETSNQPSPAFRRRRARKKTVSASESEDRLVAEQETEPSKELSKRQFSSGLNKCVILALVIAISMGFGHFYGTIQIQKRQQLVRKIHEDELNDMKDYLSQCQQEQESFIDYKSLKENLARCWTLTEAEKMSFETQKTNLATENQYLRVSLEKEEKALSSLQEELNKLREQIRILEDKGTSTELVKENQKLKQHLEEEKQKKHSFLSQRETLLTEAKMLKRELERERLVTTALRGELQQLSGSQLHGKSDSPNVYTEKKEIAILRERLTELERKLTFEQQRSDLWERLYVEAKDQNGKQGTDGKKKGGRGSHRAKNKSKETFLGSVKETFDAMKNSTKEFVRHHKEKIKQAKEAVKENLKKFSDSVKSTFRHFKDTTKNIFDEKGNKRFGATKEAAEKPRTVFSDYLHPQYKAPTENHHNRGPTMQNDGRKEKPVHFKEFRKNTNSKKCSPGHDCRENSHSFRKACSGVFDCAQQESMSLFNTVVNPIRMDEFRQIIQRYMLKELDTFCHWNELDQFINKFFLNGVFIHDQKLFTDFVNDVKDYLRNMKEYEVDNDGVFEKLDEYIYRHFFGHTFSPPYGPRSVYIKPCHYSSL
binding [3]: binds

Reference: article PMC9917250
